From PubChem BioAssay AID624246 (National Center for Advancing Translational Sciences (NCATS), 2012)
Among all 370,000 compounds or so, about 100 (0.027%) were called active. This list was built around the results that the source calls inconclusive (neither active nor inactive); the mix of calls is not that of the screen. Calls come from the whole dose curve; as a rule, active = well fitted inhibition curve with a large enough effect in the polarisation, with a control signal flat; inconclusive = small, poorly fitted or top-dose-only effect, or effect the other way, or a change in a side signal; inactive = no such curve, though single readings can be large or run the other way; the % refers to the polarisation. A potency beside an inconclusive call is a rough fit, not a confirmed value. A note “side channel” means that the fit belongs to a control or component signal, not to the main read-out.

Chains of the proteins cited; added tags and fusions are not shown.
UniProt P11308, whole entry, looked up: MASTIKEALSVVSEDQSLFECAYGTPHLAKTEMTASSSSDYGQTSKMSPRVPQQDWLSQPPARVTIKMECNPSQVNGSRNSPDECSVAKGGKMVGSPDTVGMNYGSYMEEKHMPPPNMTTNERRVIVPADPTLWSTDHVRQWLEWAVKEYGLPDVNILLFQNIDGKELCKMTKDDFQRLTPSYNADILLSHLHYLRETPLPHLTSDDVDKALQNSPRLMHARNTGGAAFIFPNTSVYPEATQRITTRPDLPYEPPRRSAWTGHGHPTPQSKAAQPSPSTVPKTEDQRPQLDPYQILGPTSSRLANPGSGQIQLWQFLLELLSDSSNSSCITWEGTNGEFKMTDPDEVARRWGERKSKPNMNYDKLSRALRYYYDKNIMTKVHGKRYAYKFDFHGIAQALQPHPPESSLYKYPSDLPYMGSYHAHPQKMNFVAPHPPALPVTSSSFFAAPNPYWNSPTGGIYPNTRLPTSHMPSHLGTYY

Each molecule was assayed against Transcriptional regulator ERG (Homo sapiens) (UniProt P11308) (assay: qHTS for Small Molecule Inhibitors of the ERG Ets/DNA interaction). Conditions: fluorescence polarization, His-ERG Ets domain / labelled DNA; FP activity, negative = inhibition: at 76.9 µM (top of the series).
Summary of the method: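 His-tagged ERG Ets domain (1 uM in the protein solution; 300mM KCl, 50mM Tris-HCl, 1mM EDTA, 1mM DTT, pH 7.5) received compound, then a probe mix of 5 nM fluorescein-DNA and 100nM Texas-615-DNA. Fluorescence polarization was read for both dyes.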
Potency is the fitted concentration of half-maximal effect.
Throughout, for FP activity, negative = inhibition: % of control where 0% means no effect.

| SMILES | FP activity, negative = inhibition | Potency |
| --- | --- | --- |
| Cc1cccc(C)c1OC(=O)c1ccccc1 | inactive: -2.72% | – |
| COc1cccc(C(=O)OCC(=O)Nc2ccc(N3CCOCC3)cc2)c1 | – | inconclusive: 11.2 µM [inhibitor, single point] |
| COC(=O)Cc1ccc(NC(=S)NC(C)(C)C)cc1 | – | inconclusive: 11.2 µM [inhibitor, single point] |
| Cc1nonc1C1CCCN1C(=O)c1cc(COc2ccc(F)cc2Cl)on1 (centres undefined) | – | inconclusive: 7.94 µM [inhibitor, single point] |
| COc1ccc(CCNC(=O)c2cccc(S(=O)(=O)N3CCc4ccccc4C3)c2)cc1 | – | inconclusive: 28.2 µM [inhibitor, partial curve, poor fit] |
| O=S(=O)(c1ccc(Cl)cc1)N1CCN(CCc2ccccc2)CC1 | – | inconclusive: 7.08 µM [inhibitor, single point] |
| CC(Oc1ccc(F)cc1)C(=O)Nc1ccc(S(=O)(=O)NC2=NCCCCC2)cc1 (centres undefined) | – | inconclusive: 35.5 µM [inhibitor, partial curve] |
| Oc1ccc(Nc2nc(-c3ccc(Cl)cc3)nc3ccccc23)cc1 | – | inconclusive: 35.5 µM [quencher, side channel, single point] |
| Nc1cccc(N2C(=O)c3cccc4c(N)ccc(c34)C2=O)c1 | – | inconclusive: 35.5 µM [inhibitor, single point] |
| COc1cc(CNCC2CCCO2)ccc1OCC(N)=O (centres undefined) | – | inconclusive: 35.5 µM [inhibitor, partial curve, poor fit] |
| COc1cc(-c2nccc3cc4c(cc23)OCO4)cc(OC)c1OC | inactive: -2.89% | – |
| O=C(O)CC(SCC(=O)Nc1ccc(S(=O)(=O)N2CCCC2)cc1)C(=O)O (centres undefined) | – | inconclusive: 5.62 µM [inhibitor, full curve, poor fit] |
| Cc1cc(F)ccc1NC(=O)c1ccc(NS(=O)(=O)c2cc(C(C)(C)C)ccc2C)cc1 | – | inconclusive: 50.1 µM [inhibitor, single point] |
| COc1ccc(S(=O)(=O)NNC(=S)NCCc2ccccc2)c(OC)c1 | – | inconclusive: 2 µM [inhibitor, full curve, poor fit] |
| c1cnc(N2CCN(Cc3ccc4c(c3)OCO4)CC2)nc1 | – | inconclusive: 11.2 µM [inhibitor, single point] |
| Cc1cc(C)c(-c2csc(Cc3nc(-c4cc5ccccc5oc4=O)cs3)n2)cc1C | inactive: -2.16% | – |
| Fc1ccc(-c2csc3ncnc(N4CCc5ccccc5C4)c23)cc1 | inactive: -0.936% | – |
| COc1cc(C)ccc1OCCOCCOc1cc(C)c(C)cc1Br | – | inconclusive: 3.98 µM [fluorescent, side channel, partial curve, poor fit] |
| COc1ccc(OC(C)C(=O)N(C)Cc2nc(-c3ccc(C)cc3)no2)cc1 (centres undefined) | inactive: 1.48% | – |
| Cn1nc([N+](=O)[O-])c(C(C#N)c2ccccn2)c(Cl)c1=O (centres undefined) | – | inconclusive: 31.6 µM [inhibitor, partial curve, poor fit] |
| COC(=O)C(CSCc1ccccc1)NC(=O)CSc1nc(N)cc(=O)[nH]1 (centres undefined) | – | inconclusive: 50.1 µM [inhibitor, single point] |
| Cc1ccc(NC(=O)c2cc3cc(OC(F)(F)F)ccc3[nH]2)cc1 | – | inconclusive: 6.31 µM [inhibitor, single point] |

Quoted from above (2 entries):

| SMILES | FP activity, negative = inhibition | Potency |
| --- | --- | --- |
| Cc1cc(F)ccc1NC(=O)c1ccc(NS(=O)(=O)c2cc(C(C)(C)C)ccc2C)cc1 | – | inconclusive: 50.1 µM [inhibitor, single point] |
| COc1ccc(S(=O)(=O)NNC(=S)NCCc2ccccc2)c(OC)c1 | – | inconclusive: 2 µM [inhibitor, full curve, poor fit] |

Following part.

| SMILES | FP activity, negative = inhibition | Potency |
| --- | --- | --- |
| CCC(=O)N1CCc2cc(Br)cc(S(=O)(=O)NCCCN(CC)Cc3ccccc3)c21 | – | inconclusive: 6.31 µM [inhibitor, partial curve, poor fit] |
| CCN(Cc1ccccc1)C(=O)COC(=O)CNC(=O)c1ccc(C)s1 | – | inconclusive: 31.6 µM [inhibitor, partial curve, poor fit] |
| Cc1cccc(C)c1NC(=O)COC(=O)C1C2CC3OC(=O)C1C3C2 (centres undefined) | inactive: -1.99% | – |
| Cc1cccn2c(=O)c(/C=C(\C#N)C(=O)NCc3ccccc3)c(N3CCC(C(N)=O)CC3)nc12 | – | inconclusive: 3.16 µM [quencher, side channel, partial curve, poor fit] |
| Cc1ccc(OCCOc2ccc(Br)cc2)c([N+](=O)[O-])n1 | inactive: -12.8% | – |
| Cc1cc(O)ccc1N/C=C1\CCCC1=O | – | inconclusive: 50.1 µM [inhibitor, single point] |
| CCOC(=O)c1ccc(NC(=O)CSc2cn(CC(=O)N3CCCC3)c3ccccc23)cc1 | inactive: -0.976% | – |
| CCOc1ccc(N2C(=O)CC(N3CCN(C(=O)c4ccco4)CC3)C2=O)cc1 (centres undefined) | – | inconclusive: 28.2 µM [inhibitor, partial curve, poor fit] |
| Cc1ccc(C(=O)Oc2coc(CSc3nnc(NC(=O)C4CC4)s3)cc2=O)cc1C | inactive: -4.13% | – |
| CCOC(=O)N1CCN(c2cc(NCCC(=O)O)c3c4c(onc24)-c2ccccc2C3=O)CC1 | – | inconclusive: 35.5 µM [fluorescent, side channel, partial curve] |
| COC(=O)c1ccc2c(c1)SC1=C(CCCC1=O)N2 | – | inconclusive: 35.5 µM [inhibitor, partial curve, poor fit] |
| CCOc1cc(/C=C2\SC(=S)N(Nc3ccccc3)C2=O)ccc1O | – | inconclusive: 39.8 µM [fluorescent, side channel, partial curve] |
| CCOC(=O)C1=C(c2ccccc2)N=c2s/c(=C\c3ccc(O)cc3)c(=O)n2C1c1cccs1 (centres undefined) | – | inconclusive: 22.4 µM [fluorescent, side channel, partial curve, poor fit] |
| CC1CCc2c(sc3nnn(CCCCOc4ccc(Cl)cc4)c(=O)c23)C1 (centres undefined) | inactive: -2.89% | – |
| Cc1cccc(C)c1OCc1cc(C(=O)N(C)Cc2nc3ccccc3[nH]2)no1 | – | inconclusive: 11.2 µM [inhibitor, single point] |
| CCN1CCCc2cc(CN(CCN3CCOCC3)C(=S)Nc3ccccc3OC)ccc21 | inactive: 0.291% | – |
| O=C(c1ccccc1)c1ccc(O)cc1O | inactive: 62.2% | – |
| O=C(NC1CCCC1)C1CCN(C(=O)c2cccc(Cl)c2)CC1 | – | inconclusive: 3.55 µM [inhibitor, partial curve, poor fit] |
| Cc1nc2ccccn2c1-c1ccnn1S(=O)(=O)c1ccc(F)cc1 | – | inconclusive: 3.98 µM [inhibitor, partial curve, poor fit] |
| Cc1cc(C)c(OCCNC(=O)c2ccccc2Sc2ccccc2C#N)c(C)c1 | – | inconclusive: 28.2 µM [inhibitor, partial curve, poor fit] |
| COc1ccccc1C1CCN(Cc2ccc(C)cc2)CC1 | – | active: 31.6 µM |
| CCCN(CCC)CCNC(=O)C1CCCN(S(=O)(=O)c2ccc3c(c2)oc(=O)n3C)C1 (centres undefined) | inactive: 0.174% | – |

| SMILES | FP activity, negative = inhibition | Potency |
| --- | --- | --- |
| O=C(Cn1ccc2ccccc2c1=O)NCCC(=O)N1CCN(c2cccc(Cl)c2)CC1 | inactive: -12.6% | – |
| NNc1nc2cccnc2n(CCNc2ncc(C(F)(F)F)cc2Cl)c1=O | inactive: 1.04% | – |
| COc1ccccc1S(=O)(=O)Cc1ccc(C(=O)NCCN(C)C)o1 | – | inconclusive: 7.94 µM [inhibitor, partial curve, poor fit] |
| COC(=O)c1ccccc1NC(=O)c1cc2nc(-c3ccc(OC)cc3)cc(C(F)(F)F)n2n1 | – | inconclusive: 12.6 µM [quencher, side channel, partial curve, poor fit] |
| CCCCN(C(=O)CSCc1c(C)noc1C)c1c(N)n(CCCC)c(=O)[nH]c1=O | – | inconclusive: 31.6 µM [inhibitor, single point] |
| CCCCn1c(N)c(N(CC)C(=O)c2ccc(C#N)cc2)c(=O)[nH]c1=O | – | inconclusive: 14.1 µM [inhibitor, partial curve, poor fit] |
| COc1cc(C(CC(=O)NCc2ccc(F)cc2)N2Cc3ccccc3C2=O)cc(OC)c1OC (centres undefined) | – | inconclusive: 35.5 µM [quencher, side channel, partial curve, poor fit] |
| Cc1ccc(-c2csc3nc[nH]c(=O)c23)cc1C | inactive: 7.6% | – |
| CCOC(=O)c1ccc(NC(=O)N2CCN(C(=O)c3ccco3)CC2)cc1 | – | active: 35.5 µM |
| COCCn1c(C)cc(C(=O)CSc2nnnn2C2CCCC2)c1C | – | inconclusive: 11.2 µM [inhibitor, single point] |
| COc1ccc2nc3c(nc2c1)CCCC3 | – | inconclusive: 35.5 µM [inhibitor, single point] |
| CCc1ccc(OCC(=O)NCc2nc(-c3cccc(C)c3)no2)c(Br)c1 | inactive: -1.86% | – |
| COc1ccc(C(=O)n2nc(C)c(Br)c2C)cc1OC | – | inconclusive: 50.1 µM [inhibitor, single point] |
| Cc1noc(/C=C/Nc2ccc(F)cc2F)c1[N+](=O)[O-] | – | inconclusive: 7.94 µM [quencher, side channel, single point] |
| CCCNC(=O)CCC(=O)N1Cc2ccccc2Oc2ncccc21 | – | inconclusive: 39.8 µM [inhibitor, single point] |
| COC(=O)c1c(C)sc(-c2c(-c3cccc(Cl)c3)[nH]c3c2c(=O)[nH]c(=O)n3C)c1O | – | inconclusive: 15.8 µM [fluorescent, side channel, partial curve, poor fit] |
| Cc1cc(C)c2nc(NC(=O)[C@@H](NC(=O)c3cccc(S(=O)(=O)N4CCOCC4)c3)C(C)C)sc2c1 | – | inconclusive: 7.94 µM [inhibitor, single point] |
| CN(C)Cc1cc2ccccc2c2c1COC2 | – | inconclusive: 7.08 µM [inhibitor, single point] |
| COc1ccc(-c2cc(C(=O)NCCc3ccccc3)c3cc(C(C)C)ccc3n2)cc1 | – | inconclusive: 35.5 µM [fluorescent, side channel, single point] |
| Cc1ccc(C(=O)OCC(=O)NCCN2C(=O)CSC2=O)cc1 | – | inconclusive: 0.794 µM [quencher, side channel, full curve, poor fit] |
